Reference: US20200030263A1, “METHODS AND COMPOSITIONS FOR PROMOTING WOUND HEALING WITH DECREASED SCAR FORMATION AFTER GLAUCOMA FILTRATION SURGERY” (United States Government as Represented by the Department …, priority 2017, published 2020)
Some entries share one result that the patent states for a list of compounds.

System: corneal haze in rabbits produced with −9.0 diopter PRK
Experiment: Corneal haze after −9.0 diopter PRK in rabbits: efficacy (slit-lamp haze score, αSMA immunofluorescence)
Format: in vivo, rabbit
Settings: 1-month and 4-months after PRK; P<0.001

O=C(CCCCCCC(=O)Nc1ccccc1)NO [SAHA, suberoylanilide hydroxamic acid]
decrease of α-SMA+ cells in the stroma compared to BSS controls: 70-93%
